The values are deposited in ChEMBL (CHEMBL3988442, “University of Dundee, Small-Polar-MMV Screening Library” (2021)).

Protein sequences, listed by entry. Tags and fused reporters are not part of them. Residues count along the entry.
UniProt Q8IDJ8, 1-583: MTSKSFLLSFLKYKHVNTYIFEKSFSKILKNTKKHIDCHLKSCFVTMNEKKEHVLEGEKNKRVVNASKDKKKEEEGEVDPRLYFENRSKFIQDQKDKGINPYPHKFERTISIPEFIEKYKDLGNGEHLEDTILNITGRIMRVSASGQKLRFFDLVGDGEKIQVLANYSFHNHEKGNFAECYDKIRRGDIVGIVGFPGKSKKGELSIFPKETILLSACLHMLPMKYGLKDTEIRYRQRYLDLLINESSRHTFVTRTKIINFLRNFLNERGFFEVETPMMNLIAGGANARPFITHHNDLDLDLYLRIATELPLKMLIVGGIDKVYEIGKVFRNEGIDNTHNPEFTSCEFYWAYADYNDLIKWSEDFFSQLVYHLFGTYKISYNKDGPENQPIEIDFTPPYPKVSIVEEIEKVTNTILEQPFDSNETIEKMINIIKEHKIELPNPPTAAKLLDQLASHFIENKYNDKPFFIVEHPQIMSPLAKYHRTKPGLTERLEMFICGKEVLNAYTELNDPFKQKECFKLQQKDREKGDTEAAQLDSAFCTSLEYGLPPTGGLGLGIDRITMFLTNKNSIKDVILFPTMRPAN
UniProt Q4DA54, 1-478: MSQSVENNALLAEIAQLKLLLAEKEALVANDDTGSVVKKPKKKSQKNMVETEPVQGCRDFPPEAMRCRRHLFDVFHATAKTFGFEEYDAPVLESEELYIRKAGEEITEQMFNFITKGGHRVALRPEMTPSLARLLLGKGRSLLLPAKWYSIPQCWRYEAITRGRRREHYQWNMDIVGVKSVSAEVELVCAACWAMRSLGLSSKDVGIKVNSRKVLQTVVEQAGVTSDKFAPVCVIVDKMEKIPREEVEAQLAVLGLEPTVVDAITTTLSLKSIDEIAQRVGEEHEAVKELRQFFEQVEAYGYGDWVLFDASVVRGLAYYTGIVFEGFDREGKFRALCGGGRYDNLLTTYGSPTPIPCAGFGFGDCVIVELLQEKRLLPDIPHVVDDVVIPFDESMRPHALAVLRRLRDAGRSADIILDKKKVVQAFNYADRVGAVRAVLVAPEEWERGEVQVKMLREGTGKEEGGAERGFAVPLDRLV

A: 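Cell assay of Leishmania donovani living inside macrophages; the read-out is not stated. Compounds at 30 µM. The record gives no direction; compounds that gave an IC50 in retests scored well above the rest, so higher reads as stronger inhibition. Of about 69,000 compounds tested this way, about 1,000 (1.5%) reached 50% or more in at least one test.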
B: 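Whole-parasite assay of Trypanosoma brucei over 72 hours; the read-out is not stated. Compounds at 30 µM. Higher reads as stronger inhibition (inferred: compounds with an IC50 in retests scored well above the rest). Values scatter widely below zero; nearly all retest evidence comes from the higher of the two concentrations used. About 64,000 compounds were tested under these conditions; 1.5% (about 940) showed 50% or more at least once.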
C: 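Assay of Toxoplasma gondii numbers, read through their beta-galactosidase reporter with a colour substrate. Compounds at 10 µM. Higher reads as fewer parasites (inferred from which compounds were picked for retests). About 67,000 compounds were tested under these conditions; 0.38% (about 260) showed 50% or more at least once.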
D: 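Enzyme assay of the cytosolic lysyl-tRNA synthetase in 384-well plates, read by luminescence. Target: Lysine-tRNA ligase, Plasmodium falciparum 3D7 (UniProt Q8IDJ8). Compounds at 30 µM. Direction is inferred from only a few compounds that gave an IC50; most scored high, so higher reads as stronger inhibition. Size under these conditions: about 69,000 compounds, about 49 of them at 50% or above in at least one test.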
E: 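Enzyme assay of histidyl-tRNA synthetase; the read-out is not stated. Target: Histidine-tRNA ligase, Trypanosoma cruzi CL Brener (UniProt Q4DA54). Concentration: 30 µM. Higher reads as stronger inhibition (inferred: compounds with an IC50 in retests scored well above the rest). Size under these conditions: about 69,000 compounds, about 31 of them at 50% or above in at least one test.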

Results are given as percent effect.
How 0% and 100% were set is not recorded. Most values in the screen are low, and negative values occur.
This is an unselected part of the compounds tested.
Two or more numbers in one place are separate tests of the same structure; such repeats can differ widely.
A dash means the value is not listed here; it may have been measured.

| # | structure | A | B | C | D | E |
|---|---|---|---|---|---|---|
| 1 | `Cn1ccnc1CN1CCC(Cc2ccccn2)CC1` | 1.548 & 13.82 | -50.37 | 5.429 | -2.171 | 4.396 |
| 2 | `O=C([C@H]1C[C@H]2OCC[C@H]2N(Cc2cccnc2)C1)N1CCCCO1` | - | - | - | 6.135 | 16.67 |
| 3 | `COc1cccc2c1OCC(C(=O)NCc1nc3c(s1)CCCC3)C2` (centres unmarked) | 18.06 | 60.51 | -9.677 | -3.787 | 4.217 |
| 4 | `CCn1nc(C)c(-c2cncn2CCN(C)C2CCCC2)c1C` | - | - | - | -0.3714 | 2.682 |
| 5 | `COc1ccccc1OC1CN(C(=O)C(c2ccccc2F)N(C)C)C1` (centres unmarked) | 24.71 | -30.83 | 3.22 | -0.811 | 2.128 |
| 6 | `Cc1cnc(CCNC(Cc2ccncc2)C(F)(F)F)s1` (centres unmarked) | 35.61 | -22.52 | 2.308 | 6.013 | 3.896 |
| 7 | `CCN(Cc1noc(CC(C)C)n1)Cc1ccccc1OCC(=O)O` | 17.19 | 4.923 | 16.45 | 2.857 | 2.809 |
| 8 | `[H][C@@]12CCN(C(=O)C3CCC3)[C@]1([H])C(=O)N(c1ccc(F)cc1)C(=O)N2` | -16.15 | -79.54 | -9.447 | - | - |
| 9 | `CNc1ccc(C2CN(c3cc(C)ncn3)CCO2)nc1` (centres unmarked) | -4.926 | -9.517 | 17.88 | 1.907 | 2.825 |
| 10 | `Cc1ccc(CCCC(=O)N2CCN(C3CCCN(C)C3)CC2)s1` (centres unmarked) | -15.31 & 24.82 | -11.85 | 10.9 | 2.372 | 4.878 |
| 11 | `CCN(CC1CCCO1)C(=O)CSCC(=O)Nc1ccc(C)cc1` (centres unmarked) | 1.738 | -4.88 | -6.671 | -0.2555 | 5.319 |
| 12 | `Cc1ccc2nc(C)cc(C(=O)NC(C)c3nnn[nH]3)c2c1` (centres unmarked) | 32.79 | -26.67 | -78.03 | 1.61 | 8.642 |
| 13 | `[H][C@@]12CN(Cc3cc(C)cc(C)c3)C[C@]1([H])OCCN2S(=O)(=O)N(C)C` | 18.73 & -20.66 | -23.39 | 7.559 | - | - |
| 14 | `CN(C)CCN1CCC(CNCc2c[nH]nc2C(C)(C)C)CC1` | -20.8 | -17.96 | 7.531 | -4.821 | 3.152 |
| 15 | `COc1ccc2cc(C(=O)N3CC[C@H](CO)[C@H](O)C3)n(C)c2c1` | -2.737 | -34.81 | -14.77 | 12.05 | 5.102 |
| 16 | `CCN(Cc1nccn1C)C(=O)c1ccc(NCc2ccccc2)nc1` | 12.37 | - | -9.169 | 6.363 | 0 |
| 17 | `c1ccc(-c2nnc3sc(CCN4CCCCCC4)nn23)cc1` | 4.94 | -40.1 | 8.749 | 5.268 | 12 |
| 18 | `CCOc1cc(NC(=O)C2CC(=O)N(c3cccc(OC)c3)C2)ncn1` (centres unmarked) | 5.563 & 31.74 | 15.41 | 4.891 | 6.236 | 5.155 |
| 19 | `COC(=O)N1C[C@H]2CC[C@@H]1CN(Cc1cscn1)C2` | - | - | - | 2.238 | 2.479 |
| 20 | `CC(C)OC[C@H]1CCC[C@]12CN(S(=O)(=O)c1cccs1)CCO2` | 7.901 | -51.47 | 1.33 | 1.788 | 3.681 |
| 21 | `COc1c(CNCc2ccc(Cn3ccnc3)cc2)c(C)nn1C` | 38.9 | 2.605 | -11.76 | 2.159 | 7.558 |
| 22 | `CCc1nnc2n1CCN(C(=O)c1ccccc1OCC1CC1)C2` | 9.208 | -48.96 | -1.452 | -0.2663 | 1.961 |
| 23 | `Cc1ccccc1C(=O)N1Cc2c(Cn3ccnc3)nn(C)c2C1.O=C(O)C(F)(F)F` | 44.64 | -19.8 | 8.045 | - | - |
| 24 | `c1cc(CNCc2ccnc(N3CCCCC3)c2)c2c(c1)OCCCO2` | 32.41 | -21.3 | -21.1 | -0.7882 | 25.4 |
| 25 | `CN(CCCc1n[nH]c(N)c1C#N)C(=O)Nc1cc(Cl)cc(Cl)c1` | 17.97 | -20.21 | -3.715 | 1.049 | 0.6494 |
| 26 | `Cc1cc(Nc2ccccn2)nc(C2CCCN(CCO)C2)n1.O=CO` (centres unmarked) | 32.66 | - | 4.07 | - | - |
| 27 | `Cn1nc2c(cc1=O)CN(CC(=O)Nc1nccs1)CC2` | 18.17 | -7.306 | 3.898 | -0.7686 | 4.386 |
| 28 | `CN(c1ccc(C(C)(C)C)cc1)S(=O)(=O)c1cc(C(=O)O)cs1` | 3.412 | -6.749 | -3.159 | 9.055 | 3.759 |
| 29 | `[H][C@]12COC[C@H](N(CC)CC)[C@@]1([H])CN(Cc1cnn(C)c1)C2` | 37.01 | -5.705 | 15.03 | - | - |
| 30 | `CCn1ncc(CNC(=O)c2cn(CCC3CCCCN3)nn2)c1C` (centres unmarked) | 5.775 | -23.14 | -15.05 | 4.664 | 9.091 |
| 31 | `O=C(c1ccc2nccnc2c1)N1C[C@@H](CN2CCCC2)[C@@H](CO)C1` | 18.25 | -18.8 | 6.453 | 1.691 | 3.352 |
| 32 | `Cc1ccc2[nH]c(CO[C@H]3CN(C(=O)C4CC4)C[C@H]3F)nc2c1` | -0.3189 | -12.09 | 0.5932 | 2.85 | 7.609 |
| 33 | `CCS(=O)(=O)N1CCC[C@]2(C(=O)N(C)C)CN(c3ccccn3)C[C@@H]2C1` | - | - | - | 0.6882 | 4.865 |
| 34 | `COc1ccc(OCc2cc(C(=O)N3CC=CC3)n[nH]2)c(Cl)c1` | 13.44 | -32.34 | 6.397 | 4.166 | 1.667 |
| 35 | `[H][C@]12C[C@@H](CN(C)C)N(C)[C@@]1([H])CCN(C(=O)Cc1cccs1)C2` | 0.6911 | -28.07 | 7.848 | - | - |
| 36 | `CCN(CC)C1COc2ccc(Br)cc2C1=O` (centres unmarked) | 17.92 | 39.02 | -8.466 | 2.939 | -4.624 |
| 37 | `CCC(O)CN1CCN(C(=O)c2cccn2Cc2ccncc2)CC1` (centres unmarked) | -9.284 | -15.38 | -14.22 | 0.3656 | 1.153 |
| 38 | `Cc1nn(C)c2ncc(C(=O)N3CCNC(=O)C3)cc12` | 10.89 | -38.54 | 4.385 | 7.397 | -1.754 |

The first 2 entries again:

| structure | A | B | C | D | E |
|---|---|---|---|---|---|
| `Cn1ccnc1CN1CCC(Cc2ccccn2)CC1` | 1.548 & 13.82 | -50.37 | 5.429 | -2.171 | 4.396 |
| `O=C([C@H]1C[C@H]2OCC[C@H]2N(Cc2cccnc2)C1)N1CCCCO1` | - | - | - | 6.135 | 16.67 |